Taken from: PubChem BioAssay AID504804 (Drosophila RNAi Screening Center, 2011)
The deposit covers about 19,000 reagents; below is a random part of those that have a named target and a result. Over the whole deposit, 47 (0.25%) got an active call. 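Signals are raw, not normalised; exact z-scores behind calls not deposited; actives needed confirmation, so some wells reaching 2 SD are inactive.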 A plus sign joins genes that one reagent is predicted to hit. Reagent sequences are not shown.

- Screen: 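dsRNAs that improve Kc cell survival under doxorubicin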 (primary screen)
- System: Drosophila Kc cells
- Knock-down reagent: long dsRNA against Drosophila genes, 0.5 µg dsRNA per well
- Duration: 96 h (48 h knock-down, then 48 h drug)
- Conditions: doxorubicin 5 µg/ml for 48 h, added 48 h after dsRNA
- Detection: 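Viability measured as cellular ATP by luminescence after 48 h knock-down then 48 h doxorubicin at 5 µg/ml; unnormalised plate counts for each replicate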
- Direction: raw ATP luminescence: higher = more viable cells, protection from doxorubicin
- Rule for the call: 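z-score of 2 or more over plate mean in both duplicates, retained only when retests and separate dsRNAs confirm the protection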

| SD above plate mean | raw ATP luminescence, replicate 1 | raw ATP luminescence, replicate 2 | Outcome | Gene | DRSC id |
| --- | --- | --- | --- | --- | --- |
| – | 37870 | 23813 | inactive | ArfGAP3 (ADP-ribosylation factor GTPase activating protein 3) | DRSC11794 |
| – | 60673 | 75960 | inactive | Sytalpha (Synaptotagmin alpha) | DRSC02869 |
| – | 60400 | 62903 | inactive | tous (testes of unusual size) | DRSC04464 |
| – | 42690 | 43397 | inactive | aos (argos) | DRSC11323 |
| – | 2.19e5 | 2.48e5 | inactive | CG31174 | DRSC13518 |
| – | 23607 | 32027 | inactive | CG43773 | DRSC00287 |
| – | 25643 | 29090 | inactive | CG43773 | DRSC00288 |
| – | 52860 | 49940 | inactive | Polr2I (RNA polymerase II subunit I) | DRSC16832 |
| – | 65960 | 81540 | inactive | CG31265 | DRSC15745 |
| – | 63577 | 57947 | inactive | Adck1 (aarF domain containing kinase 1) | DRSC04394 |
| – | 37810 | 40330 | inactive | CG12219 | DRSC17829 |
| – | 25043 | 24723 | inactive | Las (Lipoic acid synthase) | DRSC11772 |
| – | 47017 | 80150 | inactive | CG11112 | DRSC06038 |
| – | 2.28e5 | 2.28e5 | inactive | Cyp4d1 (Cytochrome P450 4d1) | DRSC17694 |
| – | 72700 | 72940 | inactive | Cyp4d1 (Cytochrome P450 4d1) | DRSC18456 |
| – | 40950 | 20297 | inactive | Pp1-87B (Protein phosphatase 1 at 87B) | DRSC16794 |
| – | 73587 | 60040 | inactive | CG12744 | DRSC06164 |
| – | 68230 | 76930 | inactive | CG5890 | DRSC15909 |
| – | 50957 | 65403 | inactive | chb (chromosome bows) | DRSC11469 |
| – | 27277 | 29853 | inactive | CG34175 | DRSC00424 |
| – | 41237 | 32527 | inactive | CG17362 | DRSC10267 |
| – | 41783 | 62550 | inactive | CG3803 | DRSC04420 |
| – | 1.68e5 | 1.09e5 | inactive | CG42586 + CG31775 | DRSC01413 |
| – | 61127 | 52393 | inactive | CG8478 | DRSC16427 |
| – | 27070 | 39660 | inactive | wdb (widerborst) | DRSC14163 |
| – | 1.41e5 | 1.94e5 | inactive | DIP-alpha (Dpr-interacting protein alpha) | DRSC17891 |
| – | 14100 | 22200 | inactive | DIP-alpha (Dpr-interacting protein alpha) | DRSC17892 |
| – | 49890 | 43560 | inactive | CG15539 | DRSC15075 |
| – | 1.08e5 | 91237 | inactive | lncRNA:CR42646 (long non-coding RNA:CR42646) | DRSC04759 |
| – | 29690 | 21550 | inactive | CG11381 | DRSC17780 |
| – | 59213 | 66917 | inactive | CG30287 | DRSC03875 |
| – | 31607 | 31013 | inactive | Ts (Thymidylate synthase) | DRSC00795 |
| – | 49070 | 41790 | inactive | Dnaaf6 (Dynein axonemal assembly factor 6) | DRSC10473 |
| – | 48250 | 41010 | inactive | CG5250 | DRSC15752 |
| – | 79433 | 65917 | inactive | Tim13 | DRSC09848 |
| – | 53480 | 64360 | inactive | CG14282 | DRSC14763 |
| at least 2 SD above plate mean | 66237 | 72743 | active | Miro (Mitochondrial Rho) | DRSC15795 |
| – | 34893 | 32443 | inactive | Chd64 | DRSC08649 |
| – | 66637 | 58280 | inactive | UQCR-C2 (Ubiquinol-cytochrome c reductase core protein 2) | DRSC10405 |
| – | 2.36e5 | 2.64e5 | inactive | Cyp308a1 (Cytochrome P450 308a1) | DRSC20238 |
| – | 3.43e5 | 3.50e5 | inactive | wupA (wings up A) | DRSC20385 |
| – | 48267 | 61650 | inactive | CG7720 | DRSC16306 |
| – | 1.94e5 | 1.94e5 | inactive | CG7720 | DRSC16307 |
| – | 58340 | 62600 | inactive | Ugt35D1 (UDP-glycosyltransferase family 35 member D1) | DRSC15107 |
| – | 37430 | 46510 | inactive | b6 | DRSC18740 |
| – | 72137 | 55470 | inactive | Or67d (Odorant receptor 67d) | DRSC10158 |
| – | 3.99e5 | 3.59e5 | inactive | CG15194 (retired record) | DRSC19642 |
| – | 3.28e5 | 3.06e5 | inactive | CG15194 (retired record) | DRSC19777 |
| – | 56997 | 48020 | inactive | Sgt1 (suppressor-of-G2-allele-of-skp1) | DRSC16519 |
| – | 49897 | 92410 | inactive | CG11123 | DRSC06040 |
| – | 56780 | 43290 | inactive | CG5882 | DRSC15907 |
| – | 22190 | 24870 | inactive | Dok (Downstream of kinase) | DRSC18204 |
| – | 23110 | 26333 | inactive | CG34178 + CG34177 | DRSC00351 |
| – | 84947 | 59607 | inactive | PIG-H + Kmn2 | DRSC12653 |
| – | 34360 | 38780 | inactive | slf (schlaff) | DRSC00583 |
| – | 44847 | 96537 | inactive | CG15237 | DRSC04971 |
| – | 3.19e5 | 2.71e5 | inactive | beat-Ic (beaten path Ic) | DRSC01524 |
| – | 51073 | 63333 | inactive | beat-Ic (beaten path Ic) | DRSC03491 |
| – | 42800 | 48730 | inactive | Cpr5C (Cuticular protein 5C) | DRSC18340 |
| – | 34447 | 61833 | inactive | CG13540 | DRSC04182 |
| – | 63770 | 65880 | inactive | Dscam3 (Down syndrome cell adhesion molecule 3) | DRSC14525 |
| – | 73250 | 65110 | inactive | Dscam3 (Down syndrome cell adhesion molecule 3) | DRSC16376 |
| – | 1.68e5 | 1.45e5 | inactive | msn (misshapen) | DRSC07990 |
| – | 62400 | 65770 | inactive | TkR99D (Tachykinin-like receptor at 99D) | DRSC16881 |
| – | 32920 | 28587 | inactive | CG11149 | DRSC02130 |
| – | 86787 | 61087 | inactive | Eogt (EGF-domain O-GlcNAc transferase) | DRSC00727 |
| – | 36020 | 35743 | inactive | pbl (pebble) | DRSC11381 |
| – | 2.35e5 | 2.23e5 | inactive | Ppr-Y | DRSC20892 |
| – | 18107 | 14013 | inactive | Atg3 (Autophagy-related 3) | DRSC10736 |
| – | 1.18e5 | 89410 | inactive | CG14356 | DRSC14819 |
| – | 75183 | 59837 | inactive | CG17732 | DRSC10283 |
| – | 62223 | 76110 | inactive | E(bx) (Enhancer of bithorax) | DRSC08583 |
| – | 46800 | 45240 | inactive | CG7912 | DRSC16343 |
| – | 50157 | 44283 | inactive | CG11293 (retired record) | DRSC04098 |
| – | 3.13e5 | 3.24e5 | inactive | CG15734 | DRSC19701 |
| – | 73290 | 99203 | inactive | CG8607 | DRSC11012 |
| – | 70660 | 40120 | inactive | eIF2Bbeta (eukaryotic translation initiation factor 2B subunit beta) | DRSC18465 |
| – | 59700 | 46630 | inactive | CanA1 (Calcineurin A1) | DRSC16600 |
| – | 68587 | 62147 | inactive | CG3328 | DRSC04357 |
| – | 69863 | 74090 | inactive | Dark (Death-associated APAF1-related killer) | DRSC05922 |
| – | 2.25e5 | 2.23e5 | inactive | CG34292 | DRSC13807 |
| – | 75957 | 66473 | inactive | CG33969 | DRSC11777 |
| – | 23683 | 26893 | inactive | CG31915 | DRSC03000 |
| – | 43900 | 45740 | inactive | Fum2 (Fumarase 2) | DRSC18345 |
